Experimental findings from PubChem BioAssay AID1347423 (Functional Genomics Laboratory (NCATS/FGL), 2020) are described below.

The whole screen tested about 52,000 sequences, of which about 210 (0.4%) were called active.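 How the source made its calls: active means gene whose silencing raises cell survival under the drug, median off-target-corrected z-score across its silencing RNAs 2 or more; inactive means the rest.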 The list shows a part of the results.

The nature of this test: Resistance to Poly (ADP-Ribose) Polymerase inhibitor: Gene Identification via Genome-wide siRNA Screen. To be noted: mouse BRCA2 R2336H ES cells, olaparib, CellTiter-Glo viability; stronger effect = higher value. Summed up: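 Genome-wide siRNA screen (3 siRNAs/gene, 20 nM) in mouse ES cells carrying hypomorphic BRCA2 R2336H; olaparib 500 nM added 48 h post-transfection, CellTiter-Glo viability 72 h later. Normalized to plate-median negative control; MAD z-scores, gene median, seed-adjusted.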
For orientation: ATP-based viability assays read luminescence as a measure of living cells.
Consider GGUCCAGUUCCUUGACAUCTT against Ifit1, for which the z-score is inactive: -1.91.
With GGAAAGCUACAUGUUGCUUTT against Prkacb, the z-score is inactive: 0.504.
As to GUGCUAGAAUACUUGACAGTT against Hist1h2aa, the z-score was inactive: -2.17.
To “GGACAGACACAAGAUGAGATT against 2810403A07Rik” belongs inactive: 0.638.
For CCUAGACAUCAGUAAUGCGTT against Zbtb17 the value was inactive: -0.301; for GGAACUGACUCUUGAAAAUTT against Cd14, inactive: -0.736.
To GGAAGAUGCUUUUGUAAGUTT against Smyd4 belongs inactive: -1.04; to “GGAUACAAACUUAACUCAUTT against 1700029I01Rik”, inactive: 0.0382; to “GGUGCAUUUUCUAGAAUCATT against 4930550B20Rik”, inactive: 0.308.
Turning to “GGAAAAAGAACACCUUUUATT against 6330505F04Rik”, the z-score was inactive: -0.0394.
As to “GGUUGAACAUAAGCACAAUTT against 4921511I16Rik”, the z-score is inactive: -0.365.
As for “GGAGGAGAAAGAGGAUUCATT against E430039K05Rik”, the z-score is inactive: 0.433.
With GGAGAUGGAUAAUUACGAGTT against Rabl4, the z-score is inactive: 2.1.
For CGAAUACGAAGCAGAAAAGTT against Smarce1 the value was inactive: -1.21; for “GGCCCUUCAAGAAUCUCUGTT against F830003B07”, inactive: -1.79; for GGCAAGAAAUUCAAAAGCUTT against Supv3l1, inactive: -0.137.
As for UGAAUAAGGUGUGGUGCUCTT against V1rd14, the z-score was inactive: 1.96.
For GCGAGAGUCACAAAGUGCATT against Wbscr16, the z-score was inactive: -0.847.
For GGAGUGUGUCUAUACUAUUTT against Otor, the z-score was inactive: 0.541.
Regarding GCCAUUGCUAGUAAUUCUUTT against Vkorc1l1, the z-score was inactive: 0.254.
Turning to “GGCACUGGAUCUUACAGAATT against 1700034I23Rik”, the z-score is inactive: 0.748.
For GGAGAUUUACUCACAGUUCTT against Kcnip4, the z-score was inactive: -0.935.
Take GGCCUUUGCUCUAAACAGCTT against Rad52b: the z-score is inactive: 0.157.
For the sequence GCUUCAGACCCACGCAUAATT against Taf10, the z-score was inactive: -0.99.
To “GGACUAUGGCUGCUGCUCATT against 4921520P21Rik” belongs inactive: -1.67.
For GGUCAAGUGUAACAAAGAATT against Bcorl1, the z-score was inactive: -1.03.
CACAGGAGCCAAUGAUGCUTT against Taar7d: the z-score is inactive: -1.56.
Regarding CCUCAAAUUUUGGGUCUCATT against Bcat2, the z-score is inactive: -1.8.
Consider CCCUCAGUACCUAAUUAAGTT against Capn2, for which the z-score was inactive: 0.114.
As to GGCAGAAUGGGAAAUGUAUTT against Htr7, the z-score is inactive: 2.92.
For GGUCUGUCUCGUCUACAAUTT against Gstm1, the z-score is inactive: -1.16.
As for ACUACUCAGACAUCUCUUGTT against Capn11, the z-score was inactive: 2.55.
Consider CCAUUCCAAAGCACUCUUATT against Cerkl, for which the z-score is inactive: -0.287.
As to GGAAUUCAUUAGAAACCAGTT against Psmc1, the z-score was inactive: -0.119.
Consider GCUGCACAUUGUCCAUUAUTT against Car12, for which the z-score is inactive: -0.13.
With “GGAGAAUUUACCUCCUAUUTT against 2310042P20Rik”, the z-score was inactive: -1.04.
For the sequence CGAAGCUCUAAUUUCAUGUTT against Pik3c3, the z-score is inactive: 1.19.
Consider GGAAAGAUGAGUUUCUGUUTT against Arf3, for which the z-score was inactive: -0.264.
Turning to “GCCAGGAACCCUUUUAAUCTT against D630003K02Rik”, the z-score is inactive: 1.3.
In the case of GGAGAAAAACAUCAUUGAATT against Reck, the z-score was inactive: 0.155.
With GGACUGGAGUGGUUUGUCUTT against Atp9b, the z-score is inactive: 0.57.
Consider GGUUAAAUGCCCGCCAACATT against Eif2ak4, for which the z-score was inactive: -1.65.
As to GCGUGAAUGAGGGAUCAGATT against Nphs1, the z-score is inactive: -0.92.
As to GGCAGAGUUUGAAAAGAUCTT against BC055447, the z-score was inactive: 0.552.
For “GGCUUGUUUCCAAAAUAGGTT against 3110032G18Rik”, the z-score is inactive: -0.0199.
Take “GCCCAUCAGAUGGCAAGAUTT against 9030221M09Rik”: the z-score was inactive: -3.15.
On to GGCUAAGAAGGAGAUUAAATT against Gas2, for which the z-score is inactive: 0.68.
In the case of CGGGCAUGAUGAAUCGAUGTT against Ldhd, the z-score is inactive: -0.2.
To GGAGACACAACCAACAUUATT against Cnr1 belongs inactive: -0.067.
Consider CGGUCAUGUCUACAUGUGCTT against Pfc, for which the z-score was inactive: 0.381.
On to GGAAUCUUUGUCCGUGAGCTT against Prx, for which the z-score was inactive: -0.262.
As to GCAAAGGACCUAAUUUAUUTT against Ehd4, the z-score was inactive: 0.489.
For the sequence GCACAGAUCUUUUUGUUCUTT against Olfr297, the z-score is inactive: -1.07.
For the sequence GCCAGUGAGUUUAUCAGCCTT against AB114826, the z-score was inactive: -0.89.
For the sequence CCUUAUGAGUCUUACGACUTT against Zfp326, the z-score was inactive: -0.0147.
With CCAUCUGUCUUCUAUUUCATT against Echdc1, the z-score was inactive: 0.619.
For GGCCUUACUAAAGAACCGCTT against Ipo4 the value was inactive: 0.0978; for GGAAGCAGAGAGUUAGAAGTT against Ndel1, inactive: -1.17; for “GGUCUAGCAGCAAUGAAUGTT against 9030405D14Rik”, inactive: 2.21.
To CCCAGAAGGACGGCACUAGTT against H2-DMb2 belongs inactive: -1.48; to CGACAUGAUUACUAUUCUCTT against Eif4ebp1, inactive: -0.0612; to GCAUUUUGUGAGCGUACAATT against Itgal, inactive: 1.52.
For the sequence GGCUGUUUGCCUGUAUUCUTT against Olfr259, the z-score is inactive: 1.5.
For the sequence GGUACCAGAACACAAGACCTT against Vkorc1, the z-score is inactive: 1.07.
For GGACACAAAUGACAUCAACTT against Ptpns1 the value was inactive: -0.156; for GGCGGAUUGAAUAAGAAGGTT against Pfn2, inactive: -0.273.
